Cleaved PARP in drug-treated melanoma cells

Source: doi:10.1371/journal.pone.0140310, primary screening data, rounded.

Compounds and concentrations:
enzastaurin: Cn1cc(C2=C(c3cn(C4CCN(Cc5ccccn5)CC4)c4ccccc34)C(=O)NC2=O)c2ccccc21 at 4 µM
tamatinib: COc1cc(Nc2ncc(F)c(Nc3ccc4c(n3)NC(=O)C(C)(C)O4)n2)cc(OC)c1OC at 2 µM
JZL184: O=C(Oc1ccc([N+](=O)[O-])cc1)N1CCC(C(O)(c2ccc3c(c2)OCO3)c2ccc3c(c2)OCO3)CC1 at 5 µM
tozasertib: Cc1cc(Nc2cc(N3CCN(C)CC3)nc(Sc3ccc(NC(=O)C4CC4)cc3)n2)n[nH]1 at 0.03 µM
dasatinib: Cc1nc(Nc2ncc(C(=O)Nc3c(C)cccc3Cl)s2)cc(N2CCN(CCO)CC2)n1 at 0.02 µM
stibogluconate: O=C(O)[C@@H]1[O][Sb](=[O])([O][Sb]2(=[O])[O][C@H]([C@H](O)CO)[C@H](O)[C@H](C(=O)O)[O]2)[O][C@H]([C@H](O)CO)[C@@H]1O (some centres undefined) at 10 µM
YM155: COCC[n+]1c2c(n(Cc3cnccn3)c1C)C(=O)c1ccccc1C2=O at 0.002 µM
A-769662: N#Cc1c(O)c2c(-c3ccc(-c4ccccc4O)cc3)csc2[nH]c1=O at 10 µM
SU6656: CN(C)S(=O)(=O)c1ccc2c(c1)/C(=C/c1cc3c([nH]1)CCCC3)C(=O)N2 at 2 µM

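Human melanoma cells were exposed to a pair of drugs for 72 h in 1,536-well plates and read by automated microscopy after fixing and staining. The read-out is the fraction of cleaved-PARP-positive nuclei, in % of that fraction in the DMSO control; 200 means twice the control level of this apoptosis marker. Concentrations were fixed for each drug; these are the higher of two levels. These are primary screening values without error estimates. The marker varies much from line to line, for technical or biological reasons.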
Only some of the drugs and lines screened are listed, without regard to their results.
An entry leaves out what has no value listed here.

{"drugs": "dasatinib and A-769662", "WM115": 126, "MEL-HO": 28.0, "A101D": 362, "LB2518-MEL": 74.4, "G-361": 63.9, "COLO 829": 199, "WM1745": 188, "LOX IMVI": 135}
{"drugs": "SU6656 and tozasertib", "WM115": 353, "MEL-HO": 41.3, "A101D": 51.1, "LB2518-MEL": 75.7, "G-361": 390, "COLO 829": 122, "WM1745": 155, "LOX IMVI": 132}
{"drugs": "enzastaurin and SU6656", "WM115": 356, "MEL-HO": 89.1, "A101D": 220, "LB2518-MEL": 259, "G-361": 193, "COLO 829": 98.4, "WM1745": 143, "LOX IMVI": 175}
{"drugs": "tamatinib and A-769662", "WM115": 124, "MEL-HO": 31.6, "A101D": 111, "LB2518-MEL": 82.2, "G-361": 84.6, "COLO 829": 69.9, "WM1745": 184, "LOX IMVI": 222}
{"drugs": "tozasertib and A-769662", "WM115": 136, "MEL-HO": 118, "A101D": 103, "LB2518-MEL": 95.4, "G-361": 152, "COLO 829": 79.5, "LOX IMVI": 37.6}
{"drugs": "tamatinib and tozasertib", "WM115": 104, "MEL-HO": 87.1, "A101D": 960, "LB2518-MEL": 68.1, "G-361": 82.8, "COLO 829": 133, "WM1745": 955, "LOX IMVI": 216}
{"drugs": "tozasertib and YM155", "WM115": 390, "MEL-HO": 91.2, "A101D": 198, "LB2518-MEL": 292, "G-361": 154, "COLO 829": 123, "WM1745": 173, "LOX IMVI": 153}
{"drugs": "tamatinib and stibogluconate", "WM115": 124, "MEL-HO": 107, "A101D": 773, "LB2518-MEL": 333, "G-361": 112, "COLO 829": 139, "WM1745": 188, "LOX IMVI": 534}
{"drugs": "tozasertib and dasatinib", "WM115": 817, "MEL-HO": 126, "A101D": 67.0, "LB2518-MEL": 125, "G-361": 85.2, "COLO 829": 133, "WM1745": 392, "LOX IMVI": 408}
{"drugs": "enzastaurin and dasatinib", "WM115": 367, "MEL-HO": 96.8, "A101D": 551, "LB2518-MEL": 109, "G-361": 189, "COLO 829": 243, "WM1745": 701, "LOX IMVI": 429}
{"drugs": "enzastaurin and tamatinib", "WM115": 159, "MEL-HO": 252, "A101D": 615, "LB2518-MEL": 255, "G-361": 109, "COLO 829": 233, "WM1745": 556, "LOX IMVI": 109}
{"drugs": "JZL184 and enzastaurin", "WM115": 90.9, "MEL-HO": 130, "A101D": 93.3, "LB2518-MEL": 119, "G-361": 113, "COLO 829": 154, "LOX IMVI": 61.2}
{"drugs": "dasatinib and SU6656", "WM115": 424, "MEL-HO": 99.7, "A101D": 434, "G-361": 278, "COLO 829": 312, "WM1745": 274, "LOX IMVI": 200}
{"drugs": "JZL184 and YM155", "WM115": 119, "MEL-HO": 52.1, "A101D": 76.8, "G-361": 202, "COLO 829": 80.7, "WM1745": 154, "LOX IMVI": 53.3}
{"drugs": "YM155 and SU6656", "WM115": 278, "MEL-HO": 87.9, "A101D": 87.0, "G-361": 252, "COLO 829": 272, "WM1745": 285, "LOX IMVI": 57.2}
{"drugs": "stibogluconate and A-769662", "WM115": 124, "MEL-HO": 218, "A101D": 139, "G-361": 72.1, "COLO 829": 78.4, "LOX IMVI": 115}
{"drugs": "YM155 and stibogluconate", "WM115": 123, "MEL-HO": 77.0, "A101D": 91.7, "LB2518-MEL": 234, "G-361": 147, "COLO 829": 20.2, "WM1745": 73.9, "LOX IMVI": 225}
{"drugs": "A-769662 and YM155", "WM115": 49.7, "MEL-HO": 158, "A101D": 58.4, "LB2518-MEL": 63.4, "G-361": 109, "COLO 829": 172, "WM1745": 97.1, "LOX IMVI": 122}
{"drugs": "enzastaurin and tozasertib", "WM115": 86.6, "MEL-HO": 80.8, "A101D": 53.5, "LB2518-MEL": 67.4, "G-361": 46.6, "COLO 829": 133, "WM1745": 262, "LOX IMVI": 72.0}
{"drugs": "SU6656 and JZL184", "WM115": 480, "MEL-HO": 53.8, "A101D": 186, "LB2518-MEL": 86.0, "G-361": 40.5, "COLO 829": 62.7, "WM1745": 454, "LOX IMVI": 157}
{"drugs": "tozasertib and JZL184", "WM115": 131, "MEL-HO": 163, "A101D": 58.6, "LB2518-MEL": 125, "G-361": 110, "COLO 829": 237, "LOX IMVI": 67.3}
{"drugs": "YM155 and enzastaurin", "WM115": 347, "MEL-HO": 41.9, "A101D": 107, "LB2518-MEL": 327, "G-361": 231, "COLO 829": 200, "WM1745": 144, "LOX IMVI": 173}
{"drugs": "dasatinib and tamatinib", "WM115": 175, "MEL-HO": 116, "A101D": 660, "LB2518-MEL": 82.8, "G-361": 142, "COLO 829": 181, "WM1745": 385, "LOX IMVI": 1360}
{"drugs": "enzastaurin and stibogluconate", "WM115": 104, "MEL-HO": 104, "A101D": 84.2, "LB2518-MEL": 159, "G-361": 34.1, "COLO 829": 97.0, "WM1745": 124, "LOX IMVI": 77.4}
{"drugs": "YM155 and dasatinib", "WM115": 290, "MEL-HO": 116, "A101D": 147, "LB2518-MEL": 373, "G-361": 106, "COLO 829": 152, "WM1745": 213, "LOX IMVI": 355}
{"drugs": "SU6656 and A-769662", "WM115": 191, "MEL-HO": 50.9, "A101D": 73.7, "LB2518-MEL": 91.5, "G-361": 52.7, "COLO 829": 106, "WM1745": 114, "LOX IMVI": 111}
{"drugs": "A-769662 and enzastaurin", "WM115": 26.6, "MEL-HO": 42.1, "A101D": 61.6, "LB2518-MEL": 188, "G-361": 89.8, "COLO 829": 165, "LOX IMVI": 122}
{"drugs": "tozasertib and stibogluconate", "WM115": 129, "MEL-HO": 25.0, "A101D": 144, "LB2518-MEL": 51.5, "G-361": 103, "COLO 829": 71.9, "WM1745": 129, "LOX IMVI": 218}
{"drugs": "YM155 and tamatinib", "WM115": 470, "MEL-HO": 95.5, "A101D": 1700, "LB2518-MEL": 276, "G-361": 274, "COLO 829": 144, "WM1745": 266, "LOX IMVI": 93.6}
{"drugs": "JZL184 and stibogluconate", "WM115": 71.8, "MEL-HO": 259, "A101D": 140, "LB2518-MEL": 56.0, "G-361": 134, "COLO 829": 76.7, "LOX IMVI": 370}

4 of the entries, repeated:

Drugs,WM115,MEL-HO,A101D,LB2518-MEL,G-361,COLO 829,WM1745,LOX IMVI
enzastaurin and SU6656,356,89.1,220,259,193,98.4,143,175
A-769662 and YM155,49.7,158,58.4,63.4,109,172,97.1,122
YM155 and tamatinib,470,95.5,1700,276,274,144,266,93.6
YM155 and stibogluconate,123,77.0,91.7,234,147,20.2,73.9,225